Laboratory results published in the supplement of paper PMC12819154, “High-throughput peptide-centric local stability assay extends protein–ligand identification to membrane proteins, tissues and bacteria” (Nature Structural & Molecular Biology, 2025).
The list shows a part of the results. Most entries show no effect beyond the scatter of the controls.

By UniProt entry, the sequences of proteins in these tests, tags left out. Where a name states a change or a piece, a line headed by the entry shows the natural chain unless it says otherwise.
UniProt Q14781, whole entry: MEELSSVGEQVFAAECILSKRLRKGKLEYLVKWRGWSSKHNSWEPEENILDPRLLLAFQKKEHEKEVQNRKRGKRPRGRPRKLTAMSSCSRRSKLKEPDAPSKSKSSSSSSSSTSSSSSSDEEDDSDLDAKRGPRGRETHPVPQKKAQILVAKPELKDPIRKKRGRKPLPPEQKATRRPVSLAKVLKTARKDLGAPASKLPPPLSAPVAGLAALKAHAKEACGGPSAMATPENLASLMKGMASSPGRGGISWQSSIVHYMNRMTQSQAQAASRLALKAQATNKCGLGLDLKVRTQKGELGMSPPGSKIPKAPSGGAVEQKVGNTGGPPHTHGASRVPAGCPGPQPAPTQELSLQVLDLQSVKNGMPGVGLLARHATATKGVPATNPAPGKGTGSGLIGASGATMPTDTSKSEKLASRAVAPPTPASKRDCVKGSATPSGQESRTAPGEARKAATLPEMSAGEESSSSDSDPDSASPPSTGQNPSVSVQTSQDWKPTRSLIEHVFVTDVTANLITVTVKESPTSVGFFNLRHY
UniProt Q15008: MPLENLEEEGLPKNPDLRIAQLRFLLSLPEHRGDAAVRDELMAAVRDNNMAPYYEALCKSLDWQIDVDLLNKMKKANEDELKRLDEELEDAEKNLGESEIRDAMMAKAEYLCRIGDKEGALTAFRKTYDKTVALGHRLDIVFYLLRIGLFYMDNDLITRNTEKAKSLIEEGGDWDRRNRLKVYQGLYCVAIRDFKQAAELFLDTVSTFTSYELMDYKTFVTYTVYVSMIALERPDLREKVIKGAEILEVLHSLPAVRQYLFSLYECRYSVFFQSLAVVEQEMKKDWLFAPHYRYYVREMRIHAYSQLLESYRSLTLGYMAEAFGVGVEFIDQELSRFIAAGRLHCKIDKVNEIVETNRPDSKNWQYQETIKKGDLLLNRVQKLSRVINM
UniProt Q15019: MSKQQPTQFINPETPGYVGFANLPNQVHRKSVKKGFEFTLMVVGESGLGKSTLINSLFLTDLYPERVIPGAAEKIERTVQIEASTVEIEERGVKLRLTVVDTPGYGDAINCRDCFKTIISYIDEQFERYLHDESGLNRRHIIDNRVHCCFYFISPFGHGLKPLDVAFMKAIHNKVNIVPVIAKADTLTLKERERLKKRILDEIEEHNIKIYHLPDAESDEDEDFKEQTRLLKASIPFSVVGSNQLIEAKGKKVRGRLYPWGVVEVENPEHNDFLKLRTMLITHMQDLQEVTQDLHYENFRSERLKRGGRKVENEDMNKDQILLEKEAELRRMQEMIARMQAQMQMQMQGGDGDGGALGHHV
UniProt Q13442: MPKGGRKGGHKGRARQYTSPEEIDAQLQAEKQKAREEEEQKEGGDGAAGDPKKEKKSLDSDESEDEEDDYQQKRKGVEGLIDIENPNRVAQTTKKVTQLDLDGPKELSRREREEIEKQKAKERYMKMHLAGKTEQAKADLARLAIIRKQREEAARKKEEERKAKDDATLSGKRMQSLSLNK
UniProt Q14593: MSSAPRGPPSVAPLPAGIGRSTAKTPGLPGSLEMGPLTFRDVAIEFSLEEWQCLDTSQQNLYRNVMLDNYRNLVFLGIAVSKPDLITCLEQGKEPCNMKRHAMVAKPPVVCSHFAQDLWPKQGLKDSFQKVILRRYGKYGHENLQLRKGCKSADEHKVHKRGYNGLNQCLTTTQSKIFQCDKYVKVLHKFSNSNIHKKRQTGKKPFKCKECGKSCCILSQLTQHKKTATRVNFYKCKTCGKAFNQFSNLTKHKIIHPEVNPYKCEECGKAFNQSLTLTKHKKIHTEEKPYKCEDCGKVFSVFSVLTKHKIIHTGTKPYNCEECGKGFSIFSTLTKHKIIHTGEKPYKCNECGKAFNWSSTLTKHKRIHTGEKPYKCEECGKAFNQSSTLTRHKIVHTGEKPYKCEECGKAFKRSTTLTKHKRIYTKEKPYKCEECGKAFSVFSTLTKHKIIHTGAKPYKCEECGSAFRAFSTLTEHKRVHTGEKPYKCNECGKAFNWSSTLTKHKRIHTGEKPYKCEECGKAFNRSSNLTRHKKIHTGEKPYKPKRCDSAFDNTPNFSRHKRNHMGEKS
UniProt Q14872: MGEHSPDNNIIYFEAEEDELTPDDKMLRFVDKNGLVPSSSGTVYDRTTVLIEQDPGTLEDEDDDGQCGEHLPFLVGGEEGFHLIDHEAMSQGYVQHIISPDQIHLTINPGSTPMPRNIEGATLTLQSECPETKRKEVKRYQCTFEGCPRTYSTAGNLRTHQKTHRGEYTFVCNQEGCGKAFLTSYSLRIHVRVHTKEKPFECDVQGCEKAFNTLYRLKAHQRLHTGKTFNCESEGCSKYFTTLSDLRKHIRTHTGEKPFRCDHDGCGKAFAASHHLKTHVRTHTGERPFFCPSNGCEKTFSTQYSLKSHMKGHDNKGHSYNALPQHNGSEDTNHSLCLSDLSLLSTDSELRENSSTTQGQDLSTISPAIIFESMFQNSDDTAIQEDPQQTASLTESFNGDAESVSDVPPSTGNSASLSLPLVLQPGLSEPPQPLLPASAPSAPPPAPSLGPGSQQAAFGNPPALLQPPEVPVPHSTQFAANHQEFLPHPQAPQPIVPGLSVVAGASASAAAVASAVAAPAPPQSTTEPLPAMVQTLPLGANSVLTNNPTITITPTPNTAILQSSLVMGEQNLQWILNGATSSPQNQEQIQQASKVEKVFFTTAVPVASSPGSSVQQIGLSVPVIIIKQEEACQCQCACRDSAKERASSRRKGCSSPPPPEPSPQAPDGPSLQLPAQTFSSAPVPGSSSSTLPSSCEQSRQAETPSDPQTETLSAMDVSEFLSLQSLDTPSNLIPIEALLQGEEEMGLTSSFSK
UniProt Q14155: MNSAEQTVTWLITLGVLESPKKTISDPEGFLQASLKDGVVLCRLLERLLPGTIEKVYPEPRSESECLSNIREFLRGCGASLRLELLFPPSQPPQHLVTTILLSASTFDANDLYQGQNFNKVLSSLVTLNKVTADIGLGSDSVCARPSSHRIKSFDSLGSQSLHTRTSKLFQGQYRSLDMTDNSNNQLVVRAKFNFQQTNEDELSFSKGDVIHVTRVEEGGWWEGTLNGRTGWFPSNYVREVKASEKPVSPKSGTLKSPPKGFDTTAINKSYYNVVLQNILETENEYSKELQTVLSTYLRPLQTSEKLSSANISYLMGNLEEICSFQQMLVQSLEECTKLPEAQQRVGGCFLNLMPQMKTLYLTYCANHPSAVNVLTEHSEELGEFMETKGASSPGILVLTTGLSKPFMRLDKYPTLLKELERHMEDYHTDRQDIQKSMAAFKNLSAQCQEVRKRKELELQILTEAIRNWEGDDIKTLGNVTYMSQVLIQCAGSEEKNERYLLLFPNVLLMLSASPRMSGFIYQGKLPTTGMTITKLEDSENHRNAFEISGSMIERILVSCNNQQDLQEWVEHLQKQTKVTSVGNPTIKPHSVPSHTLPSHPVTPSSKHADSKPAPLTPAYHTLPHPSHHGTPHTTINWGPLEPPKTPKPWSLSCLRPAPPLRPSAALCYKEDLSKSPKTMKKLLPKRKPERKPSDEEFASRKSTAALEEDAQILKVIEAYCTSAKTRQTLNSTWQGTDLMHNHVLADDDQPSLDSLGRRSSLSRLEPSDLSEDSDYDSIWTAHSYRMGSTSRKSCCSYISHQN
UniProt Q14011: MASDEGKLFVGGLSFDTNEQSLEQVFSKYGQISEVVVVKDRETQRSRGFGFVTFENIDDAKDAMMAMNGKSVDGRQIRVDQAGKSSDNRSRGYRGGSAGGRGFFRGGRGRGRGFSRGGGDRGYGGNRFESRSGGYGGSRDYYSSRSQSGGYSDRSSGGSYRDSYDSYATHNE
UniProt Q14142: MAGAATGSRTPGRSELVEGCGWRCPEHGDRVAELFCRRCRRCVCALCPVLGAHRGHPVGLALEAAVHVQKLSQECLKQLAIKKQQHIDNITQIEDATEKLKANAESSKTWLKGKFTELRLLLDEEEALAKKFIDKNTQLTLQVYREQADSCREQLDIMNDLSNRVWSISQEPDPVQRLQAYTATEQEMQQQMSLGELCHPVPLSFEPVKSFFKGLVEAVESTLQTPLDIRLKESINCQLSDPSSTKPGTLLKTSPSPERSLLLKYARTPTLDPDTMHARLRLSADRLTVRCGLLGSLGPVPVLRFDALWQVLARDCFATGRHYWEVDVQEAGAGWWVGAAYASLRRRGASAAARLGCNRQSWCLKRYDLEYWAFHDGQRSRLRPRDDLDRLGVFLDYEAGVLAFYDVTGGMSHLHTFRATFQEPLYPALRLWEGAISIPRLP
UniProt Q13492: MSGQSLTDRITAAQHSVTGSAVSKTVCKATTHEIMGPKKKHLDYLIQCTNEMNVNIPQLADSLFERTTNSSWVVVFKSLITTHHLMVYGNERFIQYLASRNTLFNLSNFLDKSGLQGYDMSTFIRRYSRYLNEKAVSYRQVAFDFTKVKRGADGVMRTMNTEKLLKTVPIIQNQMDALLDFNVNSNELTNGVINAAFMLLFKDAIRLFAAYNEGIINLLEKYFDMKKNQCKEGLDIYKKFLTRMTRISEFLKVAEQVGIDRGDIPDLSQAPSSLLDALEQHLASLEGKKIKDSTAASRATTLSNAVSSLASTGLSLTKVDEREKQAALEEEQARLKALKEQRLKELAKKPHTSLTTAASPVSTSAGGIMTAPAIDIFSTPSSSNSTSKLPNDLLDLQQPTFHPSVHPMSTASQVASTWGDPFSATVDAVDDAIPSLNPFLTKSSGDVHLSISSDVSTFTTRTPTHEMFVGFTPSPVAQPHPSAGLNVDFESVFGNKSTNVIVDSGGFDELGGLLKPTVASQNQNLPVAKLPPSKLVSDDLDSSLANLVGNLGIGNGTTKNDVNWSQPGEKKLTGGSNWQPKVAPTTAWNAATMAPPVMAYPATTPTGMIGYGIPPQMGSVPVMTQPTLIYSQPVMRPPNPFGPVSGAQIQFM

The targets below were run with CN[C@@H]1C[C@H]2O[C@@](C)([C@@H]1OC)n1c3ccccc3c3c4c(c5c6ccccc6n2c5c31)C(=O)NC4 [staurosporine] (assay: log2 fold change of tryptic peptide abundance, ligand vs vehicle (limited proteolysis) (log2 ratio); higher = more trypsin-susceptible (destabilized)). Conditions: ligand concentration: 20 uM; sample: K562 cleared lysate; digestion: 4 min, 22 C (HT-PELSA RT4min, Orbitrap Astral).
In the case of “CBX2 (peptide sequence: GSATPSGQESR, peptide start residue: 433) (UniProt Q14781)”, the log2 fold change is reported as -0.21. For “PSMD6 (peptide sequence: EGALTAFRK, peptide start residue: 118) (UniProt Q15008)”, the log2 fold change was 0.542. Work on “UniProt Q15019 (peptide sequence: ASIPFSVVGSNQLIEAK, peptide start residue: 233)” yielded a log2 fold change of -0.238. With “PDAP1 (peptide sequence: KQREEAAR, peptide start residue: 148) (UniProt Q13442)” the log2 fold change was 1.37. “ATR (peptide sequence: QILCQFIDR, peptide start residue: 35) (UniProt Q13535)” showed a log2 fold change of -0.145. Work on “UniProt Q14593 (peptide sequence: GPPSVAPLPAGIGR, peptide start residue: 7)” yielded a log2 fold change of -0.0234. “MTF1 (peptide sequence: FVDKNGLVPSSSGTVYDR, peptide start residue: 29) (UniProt Q14872)” showed a log2 fold change of 0.184. “ARHGEF7 (peptide sequence: ASEKPVSPK, peptide start residue: 243) (UniProt Q14155)” showed a log2 fold change of 0.292. With “CIRBP (peptide sequence: YGQISEVVVVK, peptide start residue: 29) (UniProt Q14011)” the log2 fold change was -0.0952. In the case of “TRIM14 (peptide sequence: RYDLEYWAFHDGQR, peptide start residue: 366) (UniProt Q14142)”, the log2 fold change is reported as 0.314. For “PICALM (peptide sequence: NDVNWSQPGEK, peptide start residue: 560) (UniProt Q13492)”, the log2 fold change was -0.115.
